These are yes or no findings as the source states them, for the method shown. In cells and extracts the contact can be indirect. Some results given as binding are weak or reduced against the parent protein; the word gives no strength.
What was measured:
Assay in all cases: FRET or BRET; FSI-FRET between EphA2-mTurq and EphA2-eYFP in the plasma membrane of live HEK293T cells in hypo-osmotic medium; with 5 μg per ml (~50 nM) ephrinA1-Fc; also at donor to acceptor ratios 3:1, 1:1, 1:3
[1] = biological target: EphA2 G131Y mutant, full-length, tagged at the C-terminus with mTurquoise or eYFP (UniProt P29317)
[2] = biological target: EphA2 R103E mutant, full-length, tagged at the C-terminus with mTurquoise or eYFP (UniProt P29317)
[3] = biological target: EphA2 L223R/L254R/V255R triple mutant, full-length, tagged at the C-terminus with mTurquoise or eYFP (UniProt P29317)

Molecule: EphA2 G131Y mutant, full-length, tagged at the C-terminus with mTurquoise or eYFP (from UniProt P29317 24-976) (receptor)
- binding [1]: binds

Molecule: EphA2 R103E mutant, full-length, tagged at the C-terminus with mTurquoise or eYFP (from UniProt P29317 24-976) (receptor)
- binding [2]: binds

B1: EphA2 L223R/L254R/V255R triple mutant, full-length, tagged at the C-terminus with mTurquoise or eYFP (receptor, UniProt P29317 24-976, looked up)
chain: AQGKEVVLLDFAAAGGELGWLTHPYGKGWDLMQNIMNDMPIYMYSVCNVMSGDQDNWLRTNWVYRGEAERIFIELKFTVRDCNSFPGGASSCKETFNLYYAESDLDYGTNFQKRLFTKIDTIAPDEITVSSDFEARHVKLNVEERSVGPLTRKGFYLAFQDIGACVALLSVRVYYKKCPELLQGLAHFPETIAGSDAPSRATVAGTCVDHAVVPPGGEEPRMHCAVDGEWRRPIGQCLCQAGYEKVEDACQACSPGFFKFEASESPCLECPEHTLPSPEGATSCECEEGFFRAPQDPASMPCTRPPSAPHYLTAVGMGAKVELRWTPPQDSGGREDIVYSVTCEQCWPESGECGPCEASVRYSEPPHGLTRTSVTVSDLEPHMNYTFTVEARNGVSGLVTSRSFRTASVSINQTEPPKVRLEGRSTTSLSVSWSIPPPQQSRVWKYEVTYRKKGDSNSYNVRRTEGFSVTLDDLAPDTTYLVQVQALTQEGQGAGSKVHEFQTLSPEGSGNLAVIGGVAVGVVLLLVLAGVGFFIHRRRKNQRARQSPEDVYFSKSEQLKPLKTYVDPHTYEDPNQAVLKFTTEIHPSCVTRQKVIGAGEFGEVYKGMLKTSSGKKEVPVAIKTLKAGYTEKQRVDFLGEAGIMGQFSHHNIIRLEGVISKYKPMMIITEYMENGALDKFLREKDGEFSVLQLVGMLRGIAAGMKYLANMNYVHRDLAARNILVNSNLVCKVSDFGLSRVLEDDPEATYTTSGGKIPIRWTAPEAISYRKFTSASDVWSFGIVMWEVMTYGERPYWELSNHEVMKAINDGFRLPTPMDCPSAIYQLMMQCWQQERARRPKFADIVSILDKLIRAPDSLKTLADFDPRVSIRLPSTSGSEGVPFRTVSEWLESIKMQQYTEHFMAAGYTAIEKVVQMTNDDIKRIGVRLPGHQKRIAYSLLGLKDQVNTVGIPI
- binding [3]: binds

Reference: PMC6123813 (Communications biology, 2018)
